In article PMC7605433:
These are yes or no findings as the source states them, for the method shown. Binding seen in cells or lysates may run through a third protein. Some binding calls cover weakened binding; strength is not graded here. For part of these data: Sequences can lack the tags named with a protein. Blank lines part the entries; values can stand above or below the molecule they belong to.

Amino acid sequences for entries named in this document (tags omitted).
UniProt P03372: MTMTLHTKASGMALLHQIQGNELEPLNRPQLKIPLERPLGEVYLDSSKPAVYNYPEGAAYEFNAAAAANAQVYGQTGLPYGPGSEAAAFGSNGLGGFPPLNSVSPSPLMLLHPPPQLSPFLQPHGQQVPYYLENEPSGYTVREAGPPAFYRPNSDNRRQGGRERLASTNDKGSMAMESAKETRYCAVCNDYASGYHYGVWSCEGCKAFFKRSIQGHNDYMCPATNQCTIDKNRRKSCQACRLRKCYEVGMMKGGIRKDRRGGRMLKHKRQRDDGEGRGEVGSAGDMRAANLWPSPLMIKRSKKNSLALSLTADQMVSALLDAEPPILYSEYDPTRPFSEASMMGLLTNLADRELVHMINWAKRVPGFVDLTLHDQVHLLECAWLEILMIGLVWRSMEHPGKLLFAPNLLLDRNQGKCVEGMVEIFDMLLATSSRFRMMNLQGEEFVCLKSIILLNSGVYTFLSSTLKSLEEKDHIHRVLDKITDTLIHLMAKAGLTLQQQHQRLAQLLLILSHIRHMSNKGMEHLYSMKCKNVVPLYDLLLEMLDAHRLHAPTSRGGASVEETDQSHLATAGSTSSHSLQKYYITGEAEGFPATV

Experiments:
[1] = molecular target: T1, Myc-RNF181 (UniProt Q9P0P0); assay: co-IP; HEK293 cells transfected with Myc-RNF181 and HA-ERα full length or mutants, 10 uM MG132 for 6 h, NP-40 lysis buffer; IP with Myc antibody, detection with HA antibody
T1 sequence: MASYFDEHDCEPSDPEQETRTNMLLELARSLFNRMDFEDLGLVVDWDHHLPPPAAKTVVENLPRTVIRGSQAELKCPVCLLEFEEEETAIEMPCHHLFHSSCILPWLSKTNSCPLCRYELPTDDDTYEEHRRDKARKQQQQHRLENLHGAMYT

[2] = molecular target: ERα, endogenous (human (endogenous in MCF-7)) (UniProt P03372); assay: co-IP; endogenous proteins; MCF-7 cells harvested with RIPA lysis buffer, lysate pre-cleared with rabbit IgG, immunoprecipitated with ERα antibody overnight, bound protein analysed with anti-RNF181; rabbit IgG as negative control
[3] = molecular target: HA-ERα full length (UniProt P03372); assay: co-IP; HEK293 cells transfected with HA-ERα and GFP-RNF181 full length or mutants, 10 uM MG132 for 6 h, NP-40 lysis buffer; IP with HA antibody, detection with GFP antibody

binding [1]: binds
Molecule: HA-ERα full length (from UniProt P03372 1-595) (receptor)

binding [2]: binds
B1: RNF181 (RING Finger Protein 181), endogenous (protein, UniProt Q9P0P0 1-153)
chain: MASYFDEHDCEPSDPEQETRTNMLLELARSLFNRMDFEDLGLVVDWDHHLPPPAAKTVVENLPRTVIRGSQAELKCPVCLLEFEEEETAIEMPCHHLFHSSCILPWLSKTNSCPLCRYELPTDDDTYEEHRRDKARKQQQQHRLENLHGAMYT

binding [3]: binds
B2: GFP-RNF181 full length (protein, UniProt Q9P0P0 1-153)
chain: MASYFDEHDCEPSDPEQETRTNMLLELARSLFNRMDFEDLGLVVDWDHHLPPPAAKTVVENLPRTVIRGSQAELKCPVCLLEFEEEETAIEMPCHHLFHSSCILPWLSKTNSCPLCRYELPTDDDTYEEHRRDKARKQQQQHRLENLHGAMYT
